Library screening results

The values are deposited in ChEMBL (CHEMBL3988442, “University of Dundee, Small-Polar-MMV Screening Library” (2021)).

Results are given as percent effect. The controls that fix the scale are not given in the record; negative values are as filed. Compounds were drawn at random from those tested, without regard to their results.

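Whole-cell assay for inhibitors of Mycobacterium tuberculosis growth, labelled Cornell in the record; the read-out is not stated. The concentration is filed as 10 mM, unlikely as a test dose, so the dose is not known. Higher means stronger inhibition (inferred from two other growth screens of the library). Size under these conditions: about 53,000 compounds, about 900 of them at 50% or above in at least one test.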

{"smiles": "CCc1cc2c(N3CCCC(c4ccn[nH]4)C3)ncnc2s1", "stereo": "stereo not given", "Percent Effect": 5.623}
{"smiles": "[H][C@@]12CCC(=O)N(CCc3c[nH]cn3)[C@]1([H])CCN(c1ncc(F)cn1)C2", "Percent Effect": -7.36}
{"smiles": "Nc1nc2c(c3c1C(=O)NC3=O)CCC2", "Percent Effect": -11.99}
{"smiles": "CN1CCN(CCC(F)(F)C(F)F)CC12CCNC(=O)CC2", "stereo": "stereo not given", "Percent Effect": -2.332}
{"smiles": "O=C(Cn1c(=O)nc2n1C(=O)N(c1ccccc1)C2)NC1CCCCC1", "Percent Effect": -77}
{"smiles": "CCCOC1CCCN(C(=O)c2csc(S(N)(=O)=O)c2)C1", "stereo": "stereo not given", "Percent Effect": -34.45}
{"smiles": "O=C1NCC2(CCN(C(=O)c3ccc4c(c3)CCCO4)CC2)O1", "Percent Effect": 7.958}
{"smiles": "CC(=O)N1CCC2(CC1)C(=O)N(c1ccc(C)nc1)CCN2CC(C)C", "Percent Effect": 24.79}
{"smiles": "[H][C@]12CC[C@@]3(N=C(C)N(CCOC)C3=O)[C@@]1([H])CN(C(=O)NC(C)C)C2", "Percent Effect": -67.94}
{"smiles": "CCCS(=O)(=O)C(C)C(=O)Nc1ccc2oc(C3CC3)nc2c1", "stereo": "stereo not given", "Percent Effect": 32.74}
{"smiles": "CC(=O)N[C@@H]1CN(C(=O)c2ccc[nH]2)C[C@H]1c1ccc(C)o1", "Percent Effect": -12.36}
{"smiles": "COCCn1c(-c2cccc(OC)c2)cnc1NC(=O)NC(C)C", "Percent Effect": 19.32}
{"smiles": "Cc1noc(COCC(=O)N2CCCCC2c2nccs2)n1", "stereo": "stereo not given", "Percent Effect": -19.3}
{"smiles": "Cc1noc(C)c1C(=O)NCC(c1ccsc1)N(C)C", "stereo": "stereo not given", "Percent Effect": 1.015}
{"smiles": "COCC(O)CN(C)c1ccnc2cc(F)ccc12", "stereo": "stereo not given", "Percent Effect": 5.566}
{"smiles": "Cc1nc(-c2ccc(C(=O)O)cc2)cc(C2CCCN(C(C)C)C2)n1", "stereo": "stereo not given", "Percent Effect": -39.02}
{"smiles": "Cn1cnc(S(=O)(=O)N2CCCc3cccc(F)c32)c1Cl", "Percent Effect": -5.515}
{"smiles": "O=C(O)C(F)(F)F.O=C(O)C(F)(F)F.[H][C@@]12CN(Cc3cccs3)C[C@@]1([H])N(Cc1cccnc1)C(=O)CO2", "Percent Effect": -23.92}
{"smiles": "COCCNC(=O)c1ccc2c(=O)n3c(nc2c1)CCCCC3", "Percent Effect": 22.57}
{"smiles": "[H][C@@]12CCN(Cc3nc(C)cs3)C[C@@]1([H])O[C@H](c1nnc(C)[nH]1)C2", "Percent Effect": -4.039}
{"smiles": "CN(C)Cc1cnc(C2CN(C(=O)c3ccccc3Cl)CCO2)[nH]1", "stereo": "stereo not given", "Percent Effect": -0.6177}
{"smiles": "CCN(CC)Cc1cn2c(n1)CN(C(=O)c1cnccn1)CC2.O=C(O)C(F)(F)F", "Percent Effect": 13.84}
{"smiles": "CCc1nn(-c2cc(Oc3cc(C)ccc3C)ncn2)c(N)c1C#N", "Percent Effect": 2.542}
{"smiles": "CCOCCNC(=O)Nc1ccc(OCc2noc(C3CC3)n2)cc1", "Percent Effect": 1.1}
{"smiles": "CCc1[nH]ncc1C(=O)N1CCN(c2nccc(OC)n2)CC1", "Percent Effect": 7.81}
{"smiles": "CCC(C)(CC(=O)O)NC(=O)Cc1ccccc1Br", "stereo": "stereo not given", "Percent Effect": 13.2}
{"smiles": "O=C(O)C(F)(F)F.O=C(c1ccoc1)N1CCC2(CCC(=O)N2Cc2ccncc2)CC1", "Percent Effect": 23.3}
{"smiles": "Cc1ccsc1[C@@H]1CCN(C(=O)CCc2cc(O)no2)C[C@H]1O", "Percent Effect": -29.3}
{"smiles": "CN(Cc1nccn1C)C1CCCN(CCCc2ccccc2)C1", "stereo": "stereo not given", "Percent Effect": -0.1515}
{"smiles": "COCCN1C[C@@H](c2ccccc2)[C@@]2(CCN(CC(=O)N(C)C)C2=O)C1.O=C(O)C(F)(F)F", "Percent Effect": 13.65}
{"smiles": "CCn1nc(C)c(C(C)NC(=O)c2cccc(NCC(=O)O)c2)c1C", "stereo": "stereo not given", "Percent Effect": 14.35}
{"smiles": "CCNC(=O)NC(=O)CNc1cc(C#N)ccc1OCC", "Percent Effect": 25}
{"smiles": "CC(C)c1cn(CC(=O)NC2CC(=O)N(CCc3ccccc3)C2)nn1", "stereo": "stereo not given", "Percent Effect": -12.42}
{"smiles": "O=C(Nc1ccccc1Cn1cncn1)C1CCN(C2CCCCC2)C1", "stereo": "stereo not given", "Percent Effect": 14.58}
{"smiles": "CC(C)c1nc(N2CCC(N3CCCC(O)C3)CC2)c2cnn(C)c2n1", "stereo": "stereo not given", "Percent Effect": 28.63}
{"smiles": "Cc1cccc(NC(=O)Nc2c[nH]c(=O)[nH]c2=O)c1C", "Percent Effect": 13.81}
{"smiles": "COCCN(C)C(C(=O)O)c1ccc2ccccc2c1", "stereo": "stereo not given", "Percent Effect": -16.36}
{"smiles": "Cc1cc(=O)n(CC(=O)NC2CCCCC2)c2ccccc12", "Percent Effect": -5.288}
{"smiles": "Cl.NC(=O)CCc1cccc(C2CCNCC2)n1", "Percent Effect": 0.01881}
{"smiles": "CNc1cccc(CC2COCCN(C(=O)c3cnn(C)c3)C2)n1", "stereo": "stereo not given", "Percent Effect": -2.017}
{"smiles": "Cn1nc(C(=O)N2CCCC2)c(F)c1NC(=O)Cc1ccccc1", "Percent Effect": 0.2054}
{"smiles": "CC(C)(C)c1ccc(C(=O)NCCCNC(=O)c2cnccn2)cc1", "Percent Effect": -20.41}
{"smiles": "O=C(O)C(F)(F)F.O=C(O)C(F)(F)F.[H][C@@]12CN(CCOC)C[C@]1([H])[C@@H](OC)CCN2Cc1ccco1", "Percent Effect": -3.098}
{"smiles": "Cc1nc(CN2CCN(C(=O)C(c3ccccc3C)N(C)C)CC2)no1", "stereo": "stereo not given", "Percent Effect": 0.8559}
{"smiles": "O=C(NCc1ccnc(OCC2CC2)c1)C1COc2ccccc2O1", "stereo": "stereo not given", "Percent Effect": 12.77}
{"smiles": "COc1ccc(C(=O)NCC(c2cccn2C)N2CCCC2)c(OC)c1", "stereo": "stereo not given", "Percent Effect": 5.209}
{"smiles": "COCCN1CCN(Cc2c(C)noc2C)Cc2ccc(C)nc21.O=C(O)C(F)(F)F.O=C(O)C(F)(F)F", "Percent Effect": 22.82}
{"smiles": "CCc1ccc(C2NCCc3cc4c(cc32)OCCO4)cc1", "stereo": "stereo not given", "Percent Effect": -15.57}
{"smiles": "CCN1CC(C(=O)N2CCC(Oc3ccccc3Cl)CC2)CC1=O", "stereo": "stereo not given", "Percent Effect": 9.025}
{"smiles": "COCCC1(CNC(=O)Nc2ccc(-n3ccnn3)cc2)CCC1", "Percent Effect": 75.09}

4 of the entries, repeated:

Cl.NC(=O)CCc1cccc(C2CCNCC2)n1 read 0.01881%.
CN1CCN(CCC(F)(F)C(F)F)CC12CCNC(=O)CC2 (stereo not given) read -2.332%.
Cc1nc(-c2ccc(C(=O)O)cc2)cc(C2CCCN(C(C)C)C2)n1 (stereo not given) read -39.02%.
Cc1nc(CN2CCN(C(=O)C(c3ccccc3C)N(C)C)CC2)no1 (stereo not given) read 0.8559%.